Source: the supplement of paper PMC10849652
Some of the results follow.

Sequences of proteins named here, by UniProt entry; tags and fusion partners are left off. A change or cut given only in a name is not applied to a line headed by its entry.
UniProt Q6P582, whole entry, looked up: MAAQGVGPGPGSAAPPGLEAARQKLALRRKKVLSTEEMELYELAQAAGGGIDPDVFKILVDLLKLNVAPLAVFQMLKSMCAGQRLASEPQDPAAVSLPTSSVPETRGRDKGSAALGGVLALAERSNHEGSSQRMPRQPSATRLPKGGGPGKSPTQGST
UniProt P53602: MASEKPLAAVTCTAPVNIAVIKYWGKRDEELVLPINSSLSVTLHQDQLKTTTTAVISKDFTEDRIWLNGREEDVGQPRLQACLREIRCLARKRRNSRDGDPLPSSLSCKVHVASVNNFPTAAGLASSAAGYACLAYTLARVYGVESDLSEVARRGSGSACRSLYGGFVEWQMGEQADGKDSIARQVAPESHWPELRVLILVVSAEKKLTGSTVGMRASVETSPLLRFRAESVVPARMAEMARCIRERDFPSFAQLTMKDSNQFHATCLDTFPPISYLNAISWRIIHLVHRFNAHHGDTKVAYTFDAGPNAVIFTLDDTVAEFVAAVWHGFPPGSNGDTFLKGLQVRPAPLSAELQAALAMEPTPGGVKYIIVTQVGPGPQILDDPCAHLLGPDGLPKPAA
UniProt Q99417: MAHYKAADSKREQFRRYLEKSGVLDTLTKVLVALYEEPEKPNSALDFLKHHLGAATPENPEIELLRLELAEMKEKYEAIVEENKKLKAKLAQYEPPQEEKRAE
UniProt Q99836, whole entry, looked up: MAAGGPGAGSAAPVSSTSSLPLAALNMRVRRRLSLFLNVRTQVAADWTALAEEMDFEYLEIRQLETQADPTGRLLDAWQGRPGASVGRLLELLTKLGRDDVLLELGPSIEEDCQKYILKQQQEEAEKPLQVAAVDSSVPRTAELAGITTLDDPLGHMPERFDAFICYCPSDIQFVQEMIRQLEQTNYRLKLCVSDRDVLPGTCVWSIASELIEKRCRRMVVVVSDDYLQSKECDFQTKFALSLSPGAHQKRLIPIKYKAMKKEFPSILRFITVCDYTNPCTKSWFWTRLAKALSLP
UniProt P19338, whole entry, looked up: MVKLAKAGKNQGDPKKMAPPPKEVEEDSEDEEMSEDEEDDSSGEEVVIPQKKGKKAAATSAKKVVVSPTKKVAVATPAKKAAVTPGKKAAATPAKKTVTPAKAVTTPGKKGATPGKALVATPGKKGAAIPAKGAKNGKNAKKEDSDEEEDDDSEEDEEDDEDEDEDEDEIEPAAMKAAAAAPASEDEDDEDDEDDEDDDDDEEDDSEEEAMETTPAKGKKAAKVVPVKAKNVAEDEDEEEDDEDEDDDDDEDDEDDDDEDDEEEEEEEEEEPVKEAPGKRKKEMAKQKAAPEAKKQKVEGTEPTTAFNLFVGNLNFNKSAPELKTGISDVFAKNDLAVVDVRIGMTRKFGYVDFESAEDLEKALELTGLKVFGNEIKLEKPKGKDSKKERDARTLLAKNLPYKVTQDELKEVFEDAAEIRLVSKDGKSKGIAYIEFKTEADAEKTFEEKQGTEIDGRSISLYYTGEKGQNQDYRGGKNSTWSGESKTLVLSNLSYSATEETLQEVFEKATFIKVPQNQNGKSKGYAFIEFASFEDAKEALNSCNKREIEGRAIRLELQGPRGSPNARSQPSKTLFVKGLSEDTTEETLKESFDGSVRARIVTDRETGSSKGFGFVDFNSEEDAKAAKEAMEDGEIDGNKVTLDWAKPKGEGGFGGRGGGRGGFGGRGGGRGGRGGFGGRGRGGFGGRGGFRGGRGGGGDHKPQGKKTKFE
UniProt Q96H55, whole entry, looked up: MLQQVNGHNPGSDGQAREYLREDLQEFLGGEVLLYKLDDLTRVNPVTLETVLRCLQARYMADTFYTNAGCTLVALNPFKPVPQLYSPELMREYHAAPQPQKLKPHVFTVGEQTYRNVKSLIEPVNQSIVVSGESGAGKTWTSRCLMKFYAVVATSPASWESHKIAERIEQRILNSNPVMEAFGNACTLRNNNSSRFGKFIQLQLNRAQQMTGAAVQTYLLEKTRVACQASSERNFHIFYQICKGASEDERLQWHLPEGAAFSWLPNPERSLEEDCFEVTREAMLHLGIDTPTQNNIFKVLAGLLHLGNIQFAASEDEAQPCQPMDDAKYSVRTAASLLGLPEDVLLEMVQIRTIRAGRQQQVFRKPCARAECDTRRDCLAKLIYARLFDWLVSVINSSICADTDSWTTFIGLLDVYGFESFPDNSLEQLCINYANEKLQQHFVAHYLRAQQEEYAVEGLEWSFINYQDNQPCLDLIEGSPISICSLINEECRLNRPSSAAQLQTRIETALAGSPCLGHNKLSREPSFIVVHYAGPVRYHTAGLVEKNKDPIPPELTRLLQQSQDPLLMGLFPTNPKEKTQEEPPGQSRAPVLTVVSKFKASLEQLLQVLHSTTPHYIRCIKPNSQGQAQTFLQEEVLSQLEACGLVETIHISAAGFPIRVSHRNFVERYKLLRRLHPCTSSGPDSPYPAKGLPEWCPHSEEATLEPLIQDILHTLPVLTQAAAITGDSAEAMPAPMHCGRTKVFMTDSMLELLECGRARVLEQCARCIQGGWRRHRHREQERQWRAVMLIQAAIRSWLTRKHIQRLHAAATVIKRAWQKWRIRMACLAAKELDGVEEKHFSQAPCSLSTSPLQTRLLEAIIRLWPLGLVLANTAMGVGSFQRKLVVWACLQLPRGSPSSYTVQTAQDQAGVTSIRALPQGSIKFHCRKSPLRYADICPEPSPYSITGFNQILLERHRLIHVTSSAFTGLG
UniProt P14649: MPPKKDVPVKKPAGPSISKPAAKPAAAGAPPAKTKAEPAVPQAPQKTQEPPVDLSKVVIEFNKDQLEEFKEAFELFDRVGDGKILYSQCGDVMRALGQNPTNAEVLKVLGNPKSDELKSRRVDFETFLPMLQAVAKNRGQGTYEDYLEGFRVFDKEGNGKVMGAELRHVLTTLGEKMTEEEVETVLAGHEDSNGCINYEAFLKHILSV
UniProt Q6XQN6: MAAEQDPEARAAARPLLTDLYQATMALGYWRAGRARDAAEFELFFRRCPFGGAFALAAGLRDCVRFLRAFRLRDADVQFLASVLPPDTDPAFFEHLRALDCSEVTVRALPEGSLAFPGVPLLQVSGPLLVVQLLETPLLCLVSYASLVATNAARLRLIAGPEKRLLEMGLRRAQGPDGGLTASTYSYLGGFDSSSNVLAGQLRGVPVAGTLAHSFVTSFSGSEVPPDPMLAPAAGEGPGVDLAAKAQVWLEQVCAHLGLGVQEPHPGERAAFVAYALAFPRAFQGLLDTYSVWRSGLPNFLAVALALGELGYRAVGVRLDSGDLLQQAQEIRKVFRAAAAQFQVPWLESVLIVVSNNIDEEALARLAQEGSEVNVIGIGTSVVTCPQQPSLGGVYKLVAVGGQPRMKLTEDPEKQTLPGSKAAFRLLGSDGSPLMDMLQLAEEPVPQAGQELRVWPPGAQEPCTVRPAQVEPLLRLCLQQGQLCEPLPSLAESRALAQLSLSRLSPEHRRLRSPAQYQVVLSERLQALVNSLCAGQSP
UniProt Q96HR8: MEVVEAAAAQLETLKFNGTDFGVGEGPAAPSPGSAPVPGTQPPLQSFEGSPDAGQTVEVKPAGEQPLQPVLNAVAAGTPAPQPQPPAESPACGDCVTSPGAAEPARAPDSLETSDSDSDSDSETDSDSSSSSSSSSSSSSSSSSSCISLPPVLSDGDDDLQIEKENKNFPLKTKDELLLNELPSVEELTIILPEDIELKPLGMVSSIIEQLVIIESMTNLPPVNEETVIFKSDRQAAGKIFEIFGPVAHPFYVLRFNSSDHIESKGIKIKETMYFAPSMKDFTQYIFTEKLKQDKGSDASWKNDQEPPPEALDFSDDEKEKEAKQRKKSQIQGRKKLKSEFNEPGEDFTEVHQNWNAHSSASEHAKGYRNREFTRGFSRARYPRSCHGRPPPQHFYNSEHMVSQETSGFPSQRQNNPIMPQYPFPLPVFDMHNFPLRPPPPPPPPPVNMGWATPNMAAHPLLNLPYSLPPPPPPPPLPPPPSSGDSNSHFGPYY
UniProt P84157: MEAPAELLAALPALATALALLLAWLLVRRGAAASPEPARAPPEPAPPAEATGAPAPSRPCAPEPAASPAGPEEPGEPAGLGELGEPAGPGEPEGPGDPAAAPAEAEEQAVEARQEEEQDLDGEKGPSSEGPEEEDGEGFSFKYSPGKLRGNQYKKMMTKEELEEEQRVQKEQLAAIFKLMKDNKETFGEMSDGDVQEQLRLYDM
UniProt Q9NR45: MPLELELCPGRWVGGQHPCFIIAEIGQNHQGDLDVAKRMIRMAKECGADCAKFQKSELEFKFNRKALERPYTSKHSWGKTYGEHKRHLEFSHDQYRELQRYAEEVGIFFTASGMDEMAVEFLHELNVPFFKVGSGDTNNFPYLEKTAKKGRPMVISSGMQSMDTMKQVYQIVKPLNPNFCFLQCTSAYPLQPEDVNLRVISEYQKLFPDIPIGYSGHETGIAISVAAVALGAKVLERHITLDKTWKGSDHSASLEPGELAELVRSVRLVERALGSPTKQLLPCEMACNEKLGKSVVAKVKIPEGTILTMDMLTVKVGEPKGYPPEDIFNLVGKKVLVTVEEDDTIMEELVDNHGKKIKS
UniProt Q8IW45: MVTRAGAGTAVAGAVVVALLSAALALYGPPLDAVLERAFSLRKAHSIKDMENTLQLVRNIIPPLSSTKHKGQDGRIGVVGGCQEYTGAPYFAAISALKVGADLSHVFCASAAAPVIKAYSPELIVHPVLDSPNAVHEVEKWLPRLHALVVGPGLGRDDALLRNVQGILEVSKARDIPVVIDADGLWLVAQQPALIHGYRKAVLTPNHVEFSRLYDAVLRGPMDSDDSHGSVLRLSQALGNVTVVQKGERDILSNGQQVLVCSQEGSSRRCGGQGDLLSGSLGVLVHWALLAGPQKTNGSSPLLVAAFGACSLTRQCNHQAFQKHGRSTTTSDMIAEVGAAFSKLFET
UniProt Q4G0N4: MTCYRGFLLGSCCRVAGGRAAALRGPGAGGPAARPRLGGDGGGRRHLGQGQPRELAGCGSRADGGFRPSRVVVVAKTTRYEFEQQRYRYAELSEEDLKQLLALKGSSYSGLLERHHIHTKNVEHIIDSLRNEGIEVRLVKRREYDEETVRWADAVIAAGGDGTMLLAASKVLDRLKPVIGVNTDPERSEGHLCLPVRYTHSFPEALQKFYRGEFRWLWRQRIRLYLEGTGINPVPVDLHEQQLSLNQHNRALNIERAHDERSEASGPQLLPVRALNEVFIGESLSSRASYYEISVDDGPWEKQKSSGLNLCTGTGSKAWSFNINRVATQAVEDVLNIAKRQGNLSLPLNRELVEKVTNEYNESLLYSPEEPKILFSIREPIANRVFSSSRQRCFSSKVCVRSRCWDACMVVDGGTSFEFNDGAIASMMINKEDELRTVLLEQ
UniProt P61599, whole entry, looked up: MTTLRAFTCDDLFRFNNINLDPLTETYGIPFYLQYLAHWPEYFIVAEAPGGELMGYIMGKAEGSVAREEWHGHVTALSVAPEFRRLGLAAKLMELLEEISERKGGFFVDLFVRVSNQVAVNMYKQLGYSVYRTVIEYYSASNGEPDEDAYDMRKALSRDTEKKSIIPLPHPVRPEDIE
UniProt Q9H0A0: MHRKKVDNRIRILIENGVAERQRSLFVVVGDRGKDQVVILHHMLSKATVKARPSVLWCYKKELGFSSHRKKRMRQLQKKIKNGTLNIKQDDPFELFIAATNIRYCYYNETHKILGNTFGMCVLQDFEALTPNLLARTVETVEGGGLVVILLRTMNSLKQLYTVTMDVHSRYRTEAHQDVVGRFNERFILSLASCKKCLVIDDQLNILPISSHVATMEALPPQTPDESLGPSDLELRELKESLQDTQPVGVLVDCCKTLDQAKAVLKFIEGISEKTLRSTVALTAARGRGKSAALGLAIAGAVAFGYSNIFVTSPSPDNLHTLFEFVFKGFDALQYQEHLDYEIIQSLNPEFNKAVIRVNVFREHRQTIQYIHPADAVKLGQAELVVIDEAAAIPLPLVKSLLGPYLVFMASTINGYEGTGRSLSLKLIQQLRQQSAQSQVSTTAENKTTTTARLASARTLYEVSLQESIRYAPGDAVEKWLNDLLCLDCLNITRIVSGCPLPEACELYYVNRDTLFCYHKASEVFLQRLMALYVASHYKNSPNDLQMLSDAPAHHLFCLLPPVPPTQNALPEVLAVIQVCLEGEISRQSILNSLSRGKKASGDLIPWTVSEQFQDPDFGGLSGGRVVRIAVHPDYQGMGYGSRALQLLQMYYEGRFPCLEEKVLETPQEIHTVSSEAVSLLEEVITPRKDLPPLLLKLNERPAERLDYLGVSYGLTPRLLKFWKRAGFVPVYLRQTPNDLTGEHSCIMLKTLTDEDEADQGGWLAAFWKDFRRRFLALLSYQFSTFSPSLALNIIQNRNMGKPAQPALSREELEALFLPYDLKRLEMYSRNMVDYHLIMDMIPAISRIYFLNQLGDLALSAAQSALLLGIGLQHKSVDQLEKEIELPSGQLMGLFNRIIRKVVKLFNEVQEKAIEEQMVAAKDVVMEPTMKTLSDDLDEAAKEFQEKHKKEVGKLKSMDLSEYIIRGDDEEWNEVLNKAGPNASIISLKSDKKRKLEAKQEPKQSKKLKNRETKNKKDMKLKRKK

Columns and labels:
Test in all cases: log2 fold change, soluble protein after heating vs DMSO (PISA); higher = thermal stabilisation; K562 lysate, 10 uM; active = over 0.2 and 3.5 SD of the protein, either way, in both replicates (recomputed)
[1] = compound: Cc1cn(-c2cc(NC(=O)c3ccc(C)c(Nc4nccc(-c5cccnc5)n4)c3)cc(C(F)(F)F)c2)cn1 [nilotinib]
Summary of the method: (§1)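 Pellets of K562 cells were dounce-homogenised in PBS pH 7.4 with 1 mM MgCl2, and the crude extract was held at 1 mg/mL protein for a 30 min treatment with 10 μM compound. Aliquots were heated for 3 min over 48°C-58°C and pooled before NP-40 was added to 0.5% at 4°C. The supernatant from 21,000xg for 90 min was quantified by TMTpro 16plex LC-MS/MS with channel sums equalised. Values are reported from duplicates as log-two fold change in thermal stability relative to solvent controls.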

[2] = compound: Cc1nc(Nc2n[nH]c3c2CN(C(=O)N[C@H](CN(C)C)c2ccccc2)C3(C)C)c2sccc2n1
Summary of the method: as §1

[3] = compound: Cc1nc(Nc2ncc(C(=O)Nc3c(C)cccc3Cl)s2)cc(N2CCN(CCO)CC2)n1 [dasatinib]
Summary of the method: as §1

[4] = compound: Cc1ncc(-c2ccnc(Nc3ccc(S(C)(=O)=O)cc3)n2)n1C(C)C
Summary of the method: as §1

[5] = compound: Cn1cc(-c2ccc3c(c2)CCN3C(=O)Cc2cccc(C(F)(F)F)c2)c2c(N)ncnc21
Summary of the method: as §1

[6] = compound: Cn1cc(CNCC2CCN(c3ncc(C(=O)NO)cn3)CC2)c2ccccc21 [quisinostat]
Summary of the method: as §1

[7] = compound: Cn1cncc1[C@@](N)(c1ccc(Cl)cc1)c1ccc2c(c1)c(-c1cccc(Cl)c1)cc(=O)n2C [tipifarnib]
Summary of the method: as §1

[8] = compound: NC(=O)Nc1cc(-c2cccc(F)c2)sc1C(=O)N[C@H]1CCCNC1
Summary of the method: as §1

[9] = compound: NC(=O)c1cnc(N[C@@H]2CCCC[C@@H]2N)nc1Nc1cccc(-n2nccn2)c1
Summary of the method: as §1

[10] = compound: NC1(c2ccc(-c3nc4ccn5c(=O)[nH]nc5c4cc3-c3ccccc3)cc2)CCC1
Summary of the method: as §1

[11] = compound: NCC(=O)Nc1ccc(-n2nc(C(F)(F)F)cc2-c2ccc3c(ccc4ccccc43)c2)cc1
Summary of the method: as §1

[12] = compound: O=C(CCCCCCC(=O)Nc1ccccc1)NO [vorinostat]
Summary of the method: as §1

[13] = compound: O=C(O)c1ccc2c(c1)nc(Nc1cccc(Cl)c1)c1ccncc12 [silmitasertib]
Summary of the method: as §1

[14] = compound: O=C1NC(=O)C(c2cnc3ccccn23)=C1c1cn2c3c(cc(F)cc13)CN(C(=O)N1CCCCC1)CC2
Summary of the method: as §1

[15] = compound: c1cn2cc(-c3ccc4cn[nH]c4c3)nc(Nc3ccc(N4CCOCC4)cc3)c2n1 [entospletinib]
Summary of the method: as §1

| Target | log2 fold change [1] | log2 fold change [2] | log2 fold change [3] | log2 fold change [4] | log2 fold change [5] | log2 fold change [6] | log2 fold change [7] | log2 fold change [8] | log2 fold change [9] | log2 fold change [10] | log2 fold change [11] | log2 fold change [12] | log2 fold change [13] | log2 fold change [14] | log2 fold change [15] |
| --- | --- | --- | --- | --- | --- | --- | --- | --- | --- | --- | --- | --- | --- | --- | --- |
| MZT2A (UniProt Q6P582) | inactive: 0.016 | inactive: 0.035 | inactive: 0.008 | inactive: -0.074 | inactive: 0.021 | inactive: 0.087 | inactive: -0.035 | inactive: -0.066 | inactive: 0.001 | inactive: 0.098 | inactive: 0.12 | inactive: 0.007 | inactive: 0.017 | inactive: -0.09 | inactive: -0.015 |
| MVD (UniProt P53602) | inactive: 0.014 | inactive: -0.004 | inactive: -0.014 | inactive: 0.033 | inactive: -0.004 | inactive: 0.058 | inactive: -0.02 | inactive: 0.002 | inactive: 0.021 | inactive: 0.003 | inactive: 0.014 | inactive: -0.163 | inactive: -0.004 | inactive: 0.016 | inactive: 0 |
| MYCBP (UniProt Q99417) | inactive: -0.034 | inactive: 0.041 | inactive: 0.019 | inactive: 0.055 | inactive: -0.011 | inactive: -0.058 | inactive: -0.011 | inactive: -0.038 | inactive: -0.02 | inactive: 0.029 | inactive: 0.006 | inactive: 0.113 | inactive: -0.015 | inactive: -0.025 | inactive: -0.075 |
| MUL1 (UniProt Q969V5) | inactive: -0.001 | inactive: 0.066 | inactive: -0.025 | inactive: -0.037 | inactive: -0.004 | inactive: 0.12 | inactive: 0.018 | inactive: 0.02 | inactive: -0.014 | inactive: 0 | inactive: 0 | inactive: 0.094 | inactive: 0.027 | inactive: -0.112 | inactive: 0.014 |
| NBAS (UniProt A2RRP1) | inactive: 0.002 | inactive: -0.07 | inactive: -0.016 | inactive: -0.021 | inactive: 0.087 | inactive: 0.029 | inactive: -0.054 | inactive: -0.024 | inactive: -0.009 | inactive: 0.048 | inactive: -0.068 | inactive: -0.238 | inactive: 0.089 | inactive: -0.053 | inactive: 0.029 |
| NAA50 (UniProt Q9GZZ1) | inactive: 0.006 | inactive: -0.024 | inactive: -0.006 | inactive: 0.003 | inactive: 0.02 | inactive: -0.02 | inactive: 0.043 | inactive: 0.018 | inactive: 0.008 | inactive: -0.021 | inactive: 0.008 | inactive: 0.025 | inactive: 0.034 | inactive: -0.001 | inactive: 0.023 |
| MYD88 isoform 6 (UniProt Q99836) | inactive: -0.003 | inactive: 0.001 | inactive: -0.021 | inactive: -0.027 | inactive: 0.024 | inactive: -0.033 | inactive: 0.004 | inactive: 0 | inactive: 0.03 | inactive: 0.054 | inactive: -0.005 | active: -0.366 | inactive: 0.023 | inactive: -0.05 | inactive: 0.033 |
| NCL (UniProt P19338) | inactive: -0.007 | inactive: -0.026 | inactive: 0.003 | inactive: 0.011 | inactive: 0.013 | inactive: 0.014 | inactive: 0.015 | inactive: -0.014 | inactive: -0.024 | inactive: 0.003 | inactive: 0.016 | inactive: 0.198 | inactive: -0.004 | inactive: 0.01 | inactive: 0.009 |
| MYO19 (UniProt Q96H55) | inactive: 0.116 | inactive: -0.054 | inactive: 0.07 | inactive: -0.095 | inactive: -0.127 | inactive: -0.045 | inactive: -0.023 | inactive: 0.055 | inactive: 0.093 | inactive: -0.027 | inactive: 0.04 | inactive: 0.049 | inactive: 0.152 | inactive: 0.088 | inactive: -0.064 |
| MYL6B (UniProt P14649) | inactive: 0.001 | inactive: -0.029 | inactive: 0.017 | inactive: -0.003 | inactive: -0.014 | inactive: 0.026 | inactive: 0.017 | inactive: -0.026 | inactive: -0.012 | inactive: 0.001 | inactive: -0.013 | inactive: 0.053 | inactive: -0.019 | inactive: 0.016 | inactive: -0.02 |
| NAPRT (UniProt Q6XQN6) | inactive: -0.004 | inactive: 0.018 | inactive: 0.009 | inactive: -0.021 | inactive: 0.008 | inactive: 0.12 | inactive: 0.017 | inactive: -0.064 | inactive: 0.014 | inactive: 0.041 | inactive: -0.032 | inactive: 0.07 | inactive: 0.03 | inactive: -0.063 | inactive: -0.009 |
| NAF1 (UniProt Q96HR8) | inactive: -0.048 | inactive: 0.106 | inactive: -0.011 | inactive: 0.016 | inactive: 0.032 | inactive: 0.023 | inactive: -0.036 | inactive: 0.027 | inactive: 0.036 | inactive: -0.006 | inactive: 0.017 | inactive: -0.042 | inactive: 0.002 | inactive: -0.023 | inactive: -0.013 |
| MXRA7 (UniProt P84157) | inactive: -0.307 | inactive: 0 | inactive: 0.03 | inactive: -0.202 | inactive: -0.034 | inactive: -0.069 | inactive: -0.006 | inactive: 0.1 | inactive: -0.078 | inactive: -0.003 | inactive: 0.118 | inactive: 0.262 | inactive: -0.102 | inactive: 0.099 | inactive: 0.021 |
| NANS (UniProt Q9NR45) | inactive: 0.006 | inactive: -0.007 | inactive: 0.001 | inactive: -0.013 | inactive: -0.009 | inactive: 0.07 | inactive: 0.024 | inactive: 0.01 | inactive: 0.001 | inactive: 0.028 | inactive: 0.004 | inactive: 0.077 | inactive: 0.012 | inactive: 0.044 | inactive: 0.052 |
| NAXD (UniProt Q8IW45) | inactive: 0.014 | inactive: -0.092 | inactive: 0.003 | inactive: 0.066 | inactive: -0.006 | inactive: -0.01 | inactive: 0.077 | inactive: -0.013 | inactive: 0.002 | inactive: -0.047 | inactive: -0.12 | inactive: 0.151 | inactive: -0.069 | inactive: 0.008 | inactive: -0.026 |
| MVB12A (UniProt Q96EY5) | inactive: -0.025 | inactive: -0.05 | inactive: 0.006 | inactive: 0.008 | inactive: 0.04 | inactive: 0.033 | inactive: 0.032 | inactive: 0.022 | inactive: -0.009 | inactive: 0.036 | inactive: -0.002 | active: -0.812 | inactive: -0.016 | inactive: 0.016 | inactive: 0.042 |
| NAA30 (UniProt Q147X3) | inactive: -0.036 | inactive: 0.019 | inactive: -0.042 | inactive: 0.059 | inactive: -0.005 | inactive: 0.032 | inactive: -0.097 | inactive: 0.001 | inactive: -0.018 | inactive: 0.041 | inactive: -0.019 | active: -0.235 | inactive: 0.047 | inactive: 0.009 | inactive: -0.003 |
| NADK2 (UniProt Q4G0N4) | inactive: 0.022 | inactive: 0.002 | inactive: -0.016 | inactive: -0.008 | inactive: -0.022 | inactive: 0.017 | inactive: 0.008 | inactive: -0.032 | inactive: 0.029 | inactive: 0.03 | inactive: -0.002 | inactive: -0.106 | inactive: 0.044 | inactive: 0.003 | inactive: -0.001 |
| MYH9 (UniProt P35579) | inactive: -0.012 | inactive: -0.004 | inactive: 0.005 | inactive: 0.018 | inactive: -0.006 | inactive: 0.015 | inactive: 0.004 | inactive: -0.007 | inactive: 0.012 | inactive: -0.019 | inactive: 0.017 | inactive: 0.022 | inactive: -0.008 | inactive: 0.005 | inactive: -0.01 |
| NAA20 (UniProt P61599) | inactive: 0.028 | inactive: -0.01 | inactive: -0.007 | inactive: 0.02 | inactive: -0.024 | inactive: -0.049 | inactive: 0.005 | inactive: 0.012 | inactive: 0.023 | inactive: 0.026 | inactive: -0.093 | inactive: 0.029 | inactive: 0.022 | inactive: 0 | inactive: -0.025 |
| NAT10 (UniProt Q9H0A0) | inactive: -0.026 | inactive: 0.014 | inactive: -0.005 | inactive: 0 | inactive: 0.036 | inactive: -0.105 | inactive: 0.018 | inactive: 0.03 | inactive: 0 | inactive: -0.038 | inactive: 0.027 | inactive: -0.011 | inactive: 0.029 | inactive: -0.012 | inactive: -0.007 |

2 records drawn at random from those above:

| Target | log2 fold change [1] | log2 fold change [2] | log2 fold change [3] | log2 fold change [4] | log2 fold change [5] | log2 fold change [6] | log2 fold change [7] | log2 fold change [8] | log2 fold change [9] | log2 fold change [10] | log2 fold change [11] | log2 fold change [12] | log2 fold change [13] | log2 fold change [14] | log2 fold change [15] |
| --- | --- | --- | --- | --- | --- | --- | --- | --- | --- | --- | --- | --- | --- | --- | --- |
| MYD88 isoform 6 (UniProt Q99836) | inactive: -0.003 | inactive: 0.001 | inactive: -0.021 | inactive: -0.027 | inactive: 0.024 | inactive: -0.033 | inactive: 0.004 | inactive: 0 | inactive: 0.03 | inactive: 0.054 | inactive: -0.005 | active: -0.366 | inactive: 0.023 | inactive: -0.05 | inactive: 0.033 |
| MYL6B (UniProt P14649) | inactive: 0.001 | inactive: -0.029 | inactive: 0.017 | inactive: -0.003 | inactive: -0.014 | inactive: 0.026 | inactive: 0.017 | inactive: -0.026 | inactive: -0.012 | inactive: 0.001 | inactive: -0.013 | inactive: 0.053 | inactive: -0.019 | inactive: 0.016 | inactive: -0.02 |
